These are yes or no findings as the source states them, for the method shown. Binding calls can cover weak binding; strength is not graded here.

Data on four molecules can be found in US20180296691A1 (Pfizer, published 2018).

The target in assay [1] is human EFNA4 antigen (ephrin-A4 ligand) (human). As to the kind of experiment: Biacore.
The target is the same in assay [2]. Put plainly: Biacore; compared with the murine counterpart.
Assay [3] addresses recombinant human EFNA4 extracellular domain fused to a histidine tag (human). As to the kind of experiment: SPR (BIAcore 2000), recombinant EFNA4 ECD-His.

B1: humanized anti-EFNA4 antibody huE47 (antibody, human IgG1, kappa, V domains shown)
VH: QVQLVQSGAEVKKPGASVKVSCKASGYTFTYFYMNWVRQAPGQGLEWVGQINPNNGGTAYAQKFQGRVTMTRDTSTSTVYMELSSLRSEDTAVYYCARWVGTHYFDYWGQGTTLTVSS
VL: EIVLTQSPATLSLSPGERATLSCRASQSVSSSSYTYIHWYQQKPGQAPRLLINFASNLESGIPARFSGSGSGTDFTLTISSLEPEDFAVYYCQHSWEIPPTFGGGTKLEIKR
notes: human IgG1 / kappa
As for B1, the binding result in assay [1] is listed as “binds”.

B2: humanized anti-EFNA4 antibody huE15 (antibody, human IgG1, V domains shown)
VH: EVQLVESGGGLVKPGGSLRLSCAASGFTFSTYGMSWVRQAPGKGLEWVATISSGGTYTYYPDSVKGRFKISRDNAKNSLYLQMNSLRAEDTAVYYCTRHDPNDGYYFLFAYWGQGTLVTVSS
VL: EIVLTQSPGTLSLSPGERATLSCKASQSVGNNVAWYQQKPGQAPRLLIYYASNRYTGIPDRFSGSGSGTDFTLTISRLEPEDFAVYYCQQHYSSPLTFGAGTKLEIK
Regarding B2, in assay [1], the binding entry was “binds”.

B3: humanized anti-EFNA4 antibody huE5 (antibody, human IgG1, V domains shown)
VH: EVQLVESGGGLVQPGGSLRLSCAASGFTVTTYGVDWVRQAPGKGLEWLGVIWGGGSTNYNSALKSRFTISRDNSKNTLYLQMNSLRAEDTAVYYCASDWAYWGQGTLVTVSS
VL: DIQMTQSPSSLSASVGDRVTITCRASQNVGTNVAWFQQKPGKAPKSLIHSASYRYSGVPSRFSGSGSGTDFTLTISSLQPEDFATYYCQQYKRYPYTFGGGTKLEIK
On to B3, for which, in assay [2], the binding result is on record as “binds”.

B4: humanized anti-EFNA4 antibody huE22 (antibody, human IgG1, kappa, V domains shown)
VH: QVQLVQSGAEVKKPGASVKVSCKASGYTFTGYYIHWVRQAPGQGLEWMGWIYPGNFNTKYNERFKGRVTMTTDTSTSTAYMELRSLRSDDTAVYYCAREDGSPYYAMDYWGQGTSVTVSS
VL: DIVMTQTPLSLSVTPGQPASISCRSSQSLVHSNGNTFLYWYLQKPGQSPQLLIYRVSNRFSGVPDRFSGSGSGTDFTLKISRVEAEDVGVYYCFQATHVPWTFGGGTKVEIKR
notes: human IgG1 / kappa; also called huE22 mAb; unconjugated huE22
Consider B4, for which the binding result in assay [1] and in assay [3] was “binds” throughout.
